Here are results for 61 compounds from PubChem BioAssay AID493014 (National Center for Advancing Translational Sciences (NCATS), 2011).

Where “and” joins values, the source holds several entries; their conditions need not be identical. Equal entries are not always repeated. This is one part of the list. The main result of the screen is listed elsewhere. These columns were measured beside it and carry no call. Compounds called inactive in the main read-out are mostly missing here. Potencies come from curve fits of mixed quality, noted in brackets.

The test can be described thus: qHTS Assay to Find Inhibitors of Chronic Active B-Cell Receptor Signaling. The note with it: ABC-DLBCL IkBa-CBG/CBR reporter, luminescence ratio (green luciferase fused to IkBa over red control in TMD8 lymphoma cells), 4 h. Put shortly: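 TMD8 human ABC-DLBCL cells with doxycycline-inducible IκBα–green luciferase fusion and unfused red luciferase, in 0.5% FBS medium; compounds up to 46 uM, 4 h at 37C. Green/red luminescence ratio, filter-overlap corrected, fitted to concentration-response curves.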
(In qHTS, concentration-response curves come from the screen itself.)

[1] abbreviates: measured here: CBR red luminescence, cell number.
[2] abbreviates: measured here: IkBa-CBG green luminescence.

With `Nc1ccc(Nc2ccncc2[N+](=O)[O-])cc1`, the concentration at half-maximal activity (AC50) under setting [1] was 23.1 µM [falling, partial curve]. Same read-out and setting: under `Cc1cccc(-n2nnc(C(=O)NC3CCCc4ccccc43)c2N)c1` (configuration not stated) stands 6.31 µM [falling, partial curve]. As to `CCC1=C2CC[C@H]3C(=O)N(c4ccccc4)C(=O)[C@H]3[C@H]2[C@@]2(C)C(=NCc3ccccc3)OC(=O)N2C1=O`, the AC50 under setting [1] was 11.2 µM [falling, partial curve, poor fit]. The same measure, in the same setting: the value for `Cc1ccc(S(=O)(=O)NCCc2cc3ccc(C)cc3[nH]c2=O)cc1` was 8.91 µM [falling, partial curve]; that for `COc1cc(/C=N/NC(=O)COc2ccc(Cl)cc2)ccc1OS(=O)(=O)c1ccc(C)cc1` was 13 µM [rising, single point]; that for `Cc1ccc(S(=O)(=O)Nc2ccc(Cl)cc2)cc1NC(=O)c1cc2c(s1)CCCC2` was 20.6 µM [falling, single point]. The same measure, in the same setting: under `CCOc1cc(/C=C2\SC(=S)N(Nc3ccccc3)C2=O)ccc1O` stands 12.6 µM [falling, partial curve, poor fit]; under `COc1cc(/C=N/O)cc(Br)c1OCc1cccc(Cl)c1`, 14.1 µM [rising, partial curve, poor fit]. Same read-out and setting: the value for `Cc1ccccc1N(CC(=O)N/N=C/c1cc(C)n(-c2ccccc2C)c1C)S(C)(=O)=O` was 16.4 µM [falling, partial curve, poor fit]; that for `O=C(/C=C/c1cn(CC(O)CN2CCOCC2)c2ccccc12)c1cccs1` (configuration not stated) was 11.2 µM [falling, partial curve, poor fit]. With `Cc1cc(C(=O)c2ccccc2)c(NC(=O)CCl)s1`, the AC50 under setting [1] is 11.6 µM [falling, partial curve] and the AC50 under setting [2] is 20.6 µM [rising, partial curve, poor fit]. For the compound `Cc1ccc(NC(=O)CSc2cccc3cccnc23)c(C)c1`, the half-maximal activity concentration (AC50) under setting [2] is 17.8 µM [falling, single point]. With `Fc1ccc(-c2csc3ncnc(N4CCc5ccccc5C4)c23)cc1`, under setting [1], the concentration at half-maximal activity (AC50) is 32.6 µM [falling, single point]. On the same count and under the same terms, the value for `CN(C)CCSc1nnc(-c2ccccc2)o1` was 16.4 µM [falling, partial curve, poor fit]; that for `COc1cccc(C2=NN(C(=O)c3ccccc3)C(O)(C(F)(F)F)C2)c1` (configuration not stated) was 20.6 µM [falling, single point]; that for `C/C(=N/Nc1cc(-c2ccccc2)nc(-c2ccccc2)n1)c1ccc(O)cc1` was 2.59 µM [falling, full curve].

Take `CCOc1cccc(C(=O)Nc2nnc(-c3cccs3)s2)c1`: the half-maximal activity concentration (AC50) under setting [1] was 1.03 µM [falling, full curve]. `COc1ccc(Cl)cc1N1C(=O)C2CCCN2C1c1ccc(F)c(F)c1` (configuration not stated): under setting [1], the AC50 is 35.5 µM [falling, single point]. For `O=C1C=CC(=O)N1`, the AC50 under setting [1] was 29.1 µM [falling, single point]. Still for that read-out and setting: the value for `Cc1ccc(N2C(=O)C3Sc4[nH]c(=O)sc4C(c4ccccc4)C3C2=O)cc1` (configuration not stated) was 25.1 µM [falling, partial curve, poor fit]; that for `Cc1cccc(-c2nnc(NC(=O)c3ccco3)s2)c1` was 3.16 µM [falling, full curve]. Same read-out and setting: the value for `O=C(NC(=S)N1CCN(c2ccccc2)CC1)c1ccccc1` was 11.2 µM [rising, single point]; that for `CC(C)CC(NC(=O)OC(C)(C)C)C(=O)NCc1ccccc1` (configuration not stated) was 3.16 µM [rising, full curve]. Regarding `Cc1ccc(NC(=O)N(C)c2ccccc2)cc1`, the AC50 under setting [1] is 15.8 µM [falling, single point]. Still for that read-out and setting: under `O=[N+]([O-])c1ccccc1N/N=C/c1cccc(O)c1O` stands 10 µM [falling, partial curve, poor fit].

Take `O=C(/C=C/c1cn(-c2ccccc2)nc1-c1ccccc1)Nc1ccc(C(=O)O)cc1`: the AC50 under setting [1] was 0.708 µM [falling, full curve, poor fit]. The same measure, in the same setting: under `COc1ccc(-c2nnc(NC(=O)c3ccc4c(c3)OCCO4)o2)cc1` stands 3.16 µM [falling, full curve, poor fit]. Same read-out and setting: under `CCC(CC)NCc1ccc2c(c1)c1ccccc1n2CC` stands 15.8 µM [falling, partial curve].

Turning to `Cc1ccc(C)c(CS(=O)(=O)c2cn(CC(=O)N3CCC(C)CC3)c3ccccc23)c1`, the half-maximal activity concentration (AC50) under setting [1] was 18.4 µM [falling, single point]. Take `Cc1cc(C)c(-c2csc(NC(=O)CCCc3nc4ccccc4c(=O)[nH]3)n2)c(C)c1`: the half-maximal activity concentration (AC50) under setting [1] was 20.6 µM [falling, single point]. For the compound `N=C1SCC(=O)N1c1ncc(Cc2ccccc2Cl)s1`, the AC50 was 3.16 µM [rising, partial curve, poor fit] under setting [1] and 3.55 µM [falling, full curve] under setting [2]. Turning to `CCOC(=O)Cc1cc(=O)n2[nH]c(-c3ccc(Cl)cc3)cc2n1`, the concentration at half-maximal activity (AC50) under setting [1] is 7.31 µM [falling, partial curve]. Same read-out and setting: the value for `Cc1ccccc1/C=N/n1c(-c2cc(-c3ccccc3)n[nH]2)n[nH]c1=S` was 0.631 µM [rising, full curve, poor fit]; that for `Cc1csc(CNc2ncnc3ccc(-c4ccc5c(c4)OCCO5)cc23)c1` was 29.1 µM [falling, single point] and 18.4 µM [falling, single point]. Consider `CC(/C=C/c1ccccc1)=N\NC(=S)NC(C)C`, for which the half-maximal activity concentration (AC50) is 25.1 µM [rising, single point] under setting [1] and 11.2 µM [falling, partial curve] under setting [2]. Turning to `Cc1ccc(NC(=O)C2CCC(CNc3c(N4CCC(C)CC4)c(=O)c3=O)CC2)cc1F` (configuration not stated), the concentration at half-maximal activity (AC50) under setting [1] is 3.98 µM [rising, partial curve]. Still for that read-out and setting: the value for `COc1c(Cl)cc(C(=O)Nc2ccccc2C(=O)O)cc1Cl` was 1.41 µM [falling, full curve]; that for `Cc1cc(C(=O)N/N=C/c2c[nH]c3ccccc23)c(C)o1` was 14.6 µM [falling, partial curve, poor fit].

`CCCOC(=O)c1c(NC(=O)C2CCCO2)sc(C(=O)OC)c1C` (configuration not stated): the AC50 under setting [1] is 2.31 µM [falling, partial curve, poor fit]. For the compound `Cc1cc(C(C)(C)C)ccc1OCCn1ccnc1`, the half-maximal activity concentration (AC50) runs as follows: under setting [1], 20.6 µM [falling, single point]; under setting [2], 20.6 µM [rising, partial curve, poor fit]. For the compound `COc1ccc(/C(O)=C2\C(=O)C(=O)N(c3cc(C)on3)C2c2ccccc2OC)cc1` (configuration not stated), the half-maximal activity concentration (AC50) under setting [1] is 3.26 µM [falling, partial curve]. For the compound `O=C(Nc1ccccc1N(C(=O)c1ccco1)S(=O)(=O)c1cccs1)c1ccco1`, the AC50 under setting [1] is 23.1 µM [falling, single point].

`COC(=O)c1cccc(Nc2nc3ccccc3nc2C)c1`: under setting [1], the AC50 is 3.98 µM [rising, single point]. Same read-out and setting: under `O=C(COc1ccc2c(C(F)(F)F)cc(=O)oc2c1)Nc1ccc2c(c1)OCCO2` stands 16.4 µM [falling, single point].

For the compound `CC(C)c1ccc(/C=C/C(=O)NCCC2=CCCCC2)cc1`, the half-maximal activity concentration (AC50) under setting [1] was 29.1 µM [falling, single point] and the AC50 under setting [2] was 32.6 µM [rising, partial curve, poor fit]. Take `CCc1ccc(C2NC(=S)NC3=C2C(=O)N(c2ccccc2OC)C(c2ccc(CC)cc2)N3)cc1` (configuration not stated): the half-maximal activity concentration (AC50) under setting [1] is 18.4 µM [falling, single point].

For the compound `C=CCn1c(SCC(=O)NC2CCS(=O)(=O)C2)nnc1-c1cc2c(s1)CCC(CC)C2` (configuration not stated), the AC50 under setting [1] is 0.116 µM [falling, full curve, poor fit].

`CCN1CCN(C(=S)NC(=O)c2cccc(Br)c2)CC1`: the concentration at half-maximal activity (AC50) under setting [2] was 8.2 µM [falling, single point]. Regarding `COc1ccc(N2CCN(C(=O)COC(=O)c3oc4ccc(OC)cc4c3C)CC2)cc1`, the AC50 under setting [1] is 14.6 µM [rising, partial curve, poor fit]. For the compound `O=C(CSc1nc(-c2ccccc2)c(-c2ccccc2)[nH]1)Nc1nccs1`, the AC50 under setting [1] was 3.98 µM [falling, partial curve, poor fit] and the AC50 under setting [2] is 4.47 µM [rising, partial curve, poor fit]. Turning to `CCOc1ccc2nc(NC(=O)c3ccoc3C)sc2c1`, the AC50 under setting [1] is 11.2 µM [falling, partial curve]. Still for that read-out and setting: under `CS(=O)(=O)N1CCC(Oc2cccc(C(=O)NCCCOc3cccnc3)c2)CC1` stands 14.1 µM [falling, single point]; under `Clc1ccc(OCc2cn3ccccc3n2)c2ncccc12`, 10 µM [falling, partial curve, poor fit]. Same read-out and setting: the value for `O=C(Nc1cccc([N+](=O)[O-])c1)ONC1=NCCCCC1` was 6.31 µM [rising, full curve, poor fit]; that for `CC1C/C(=N/NC(=O)c2cccs2)CC(C)(C)C1` (configuration not stated) was 20.6 µM [falling, partial curve]. Still for that read-out and setting: under `Cc1noc(C)c1S(=O)(=O)N(CC(=O)Nc1ccc2c(c1)OCCO2)c1ccc(C(C)C)cc1` stands 35.5 µM [falling, single point]; under `CN1CCN(c2ncnc3sc(-c4ccccc4)cc23)CC1`, 5.62 µM [rising, partial curve, poor fit]; under `CCc1ccc(O)c(N=Cc2cccc(C)c2O)c1`, 2.06 µM [rising, partial curve, poor fit]. As for `COc1ccc(S(=O)(=O)NNC(=S)NCCc2ccccc2)c(OC)c1`, under setting [1], the AC50 was 4.47 µM [rising, full curve, poor fit]. Same read-out and setting: the value for `COc1ccc(Cl)cc1NC(=O)Cn1nnc(C(=O)NCc2ccc3c(c2)OCO3)c1N` was 35.5 µM [rising, single point]; that for `CCCOc1ccc(NC2=CC(=O)CC(C)(C)C2)cc1` was 0.259 µM [falling, full curve, poor fit].

As usually defined, the AC50 is the concentration at which the activity in the assay is half-maximal.
